The subject of assay [1] is H4 GFP-LC3. Nature of the assay: cell viability (scaled to control) (fraction of control); higher = more viable cells.
In assay [2] the test system is H4 GFP-LC3. In words: ACBP immunofluorescence intensity (scaled to control) (AU (scaled)); higher = more intracellular ACBP/DBI.

Molecules are shown by their SMILES. Several values for one entry are separate records, joined by “and”; a condition that tells them apart may be missing. Identical values can stand only once. Some of the results follow. The data scatter; read single values as rough.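 The cells are a human neuroglioma line carrying a green fluorescent autophagy reporter.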

`C/N=C(/NC#N)NCCSCc1csc(NC(=N)N)n1` (5 µM): the cell viability in assay [1] (6 h) worked out at 1.12; in assay [1] (24 h), 0.915. The ACBP immunofluorescence intensity was determined as 0.965 in assay [2] (6 h) and 0.475 in assay [2] (24 h).
For `CN1CCN(C2=Nc3cc(F)ccc3Cc3ccccc32)CC1` (5 µM), in that order: 0.779, 1.07, 0.961 and 0.648.
For the molecule `CSCCC(NC(=O)C(CC(C)C)NC(=O)C(Cc1c[nH]cn1)NC(=O)CNC(=O)C(NC(=O)C(C)NC(=O)C(Cc1c[nH]c2ccccc12)NC(=O)C(Cc1c[nH]cn1)NC(=O)C(CC(N)=O)NC(=O)CNC(=O)C(CCCNC(=N)N)NC(=O)C1CCCN1C(=O)C(Cc1ccc(O)cc1)NC(=O)C(CCSC)NC(=O)C(CCCCN)NC(=O)C(NC(=O)C(CC(C)C)NC(=O)C(NC(=O)C(NC(=O)CNC(=O)CNC(=O)CNC(=O)C(C)NC(=O)C1CCCN1C(=O)C(CC(C)C)NC(=O)C1CCCN1C(=O)C(N)C(C)C)C(C)O)C(C)C)C(C)O)C(C)C)C(N)=O` (configuration not stated) (5 µM), the cell viability was 1.12 in assay [1] (6 h) and 1.11 in assay [1] (24 h). In addition, the ACBP immunofluorescence intensity in assay [2] (6 h) was found to be 0.942; in assay [2] (24 h), 0.788.
For `CN1CCN2c3ncccc3Cc3ccccc3C2C1` (configuration not stated) (5 µM), in that order: 0.854, 0.755, 0.855 and 0.546.
For `Cc1cc2c(s1)Nc1ccccc1N=C2N1CCN(C)CC1` (5 µM), in that order: 0.918, 1.25, 0.789 and 0.636.
`CC(=O)OCC[N+](C)(C)C` (5 µM): the cell viability in assay [1] (6 h) is 1.15 and 0.882; in assay [1] (24 h) it was 1.27 and 1.21. The ACBP immunofluorescence intensity in assay [2] (6 h) was 0.766 and 0.998; in assay [2] (24 h), 0.777 and 0.907.
As to `OCCN1CCN(CCCN2c3ccccc3Sc3ccc(C(F)(F)F)cc32)CC1` (5 µM), the cell viability in assay [1] (6 h) came to 0.666; in assay [1] (24 h) it was 1.22. Also, the ACBP immunofluorescence intensity in assay [2] (6 h) came out at 0.957; in assay [2] (24 h), 0.71.
For `CCN1CCC[C@H]1CNC(=O)c1c(O)c(Cl)cc(Cl)c1OC` (5 µM), in that order: 0.951, 1.25, 0.892 and 0.796.

The values are drawn from the supplement of paper PMC11659162.
